In US20070060529A1, “ADMINISTRATION OF DIPEPTIDYL PEPTIDASE INHIBITORS” (priority 2005, published 2007):
At least one structure is not confirmed: it was looked up by name or label, or the drawing left a doubt.

Test system: hemoglobin A1c
Assay: Hemoglobin A1c level versus placebo control after extended once-daily treatment
Type: in vivo, human
Conditions: one time per day at the specified dosage levels, expected

N#Cc1ccccc1Cn1c(N2CCC[C@@H](N)C2)ncc(F)c1=O [Compound I, 2-[[2-[(3R)-3-Amino-piperidinyl)-5-fluoro-6-oxo-6H-pyrimidinyl]methyl]-benzonitrile]
decrease of patient's hemoglobin A1c level compared to placebo control: greater than 0.5%
